Consider one substance from PMC9537309.

Chains of the proteins cited; added tags and fusions are not shown.
UniProt Q15717: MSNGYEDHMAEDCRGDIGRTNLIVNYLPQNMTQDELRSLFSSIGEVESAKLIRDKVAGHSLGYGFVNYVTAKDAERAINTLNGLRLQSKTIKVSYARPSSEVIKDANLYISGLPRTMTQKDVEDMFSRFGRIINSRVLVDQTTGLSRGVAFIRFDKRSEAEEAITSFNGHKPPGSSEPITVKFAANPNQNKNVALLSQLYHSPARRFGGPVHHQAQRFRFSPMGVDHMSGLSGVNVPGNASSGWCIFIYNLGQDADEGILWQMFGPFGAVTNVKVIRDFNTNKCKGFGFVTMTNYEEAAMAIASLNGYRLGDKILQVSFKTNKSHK

The experiment concerns the target T1, FLAG-tagged DND1 wild-type (Dead End, full-length human protein 1-353) (human) (UniProt Q8IYX4).
T1 sequence: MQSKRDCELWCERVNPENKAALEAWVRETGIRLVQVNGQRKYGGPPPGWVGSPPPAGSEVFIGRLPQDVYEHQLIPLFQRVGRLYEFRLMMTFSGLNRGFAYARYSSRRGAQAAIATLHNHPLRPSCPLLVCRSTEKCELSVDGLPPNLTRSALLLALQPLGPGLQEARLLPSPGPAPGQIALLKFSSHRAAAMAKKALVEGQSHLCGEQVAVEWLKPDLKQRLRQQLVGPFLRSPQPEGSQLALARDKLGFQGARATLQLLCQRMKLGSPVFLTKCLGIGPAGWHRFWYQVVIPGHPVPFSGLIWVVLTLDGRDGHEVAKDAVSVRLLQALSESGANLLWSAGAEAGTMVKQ
Nature of the experiment: co-IP; same FLAG-M2 immunoprecipitation from transfected HEK293T lysate; beads washed twice in IP-Lysis buffer and five times in 1x TBS pH 7.4, eluted with 0.1 M glycine pH 3.0; western blot. A general note: Immunoblotting shows a protein as a band on a membrane.

No constants are given. Whether binding was seen depends on the method and setting. Binding seen in cells or lysates may run through a third protein. Some entries that bind do so weakly or less than the wild type. Sequences can lack the tags named with a protein.

For ELAVL1/HuR (from UniProt Q15717 1-326), the binding result was “binds”.
